# Results are given in words; binding and its absence hold for the method and conditions named. Some entries that bind do so weakly or less than the wild type. Sequences can lack the tags named with a protein.
# The chains behind the UniProt entries cited, without tags or fusion partners. Where a name states a change or a piece, a line headed by the entry shows the natural chain unless it says otherwise.
# UniProt Q07011: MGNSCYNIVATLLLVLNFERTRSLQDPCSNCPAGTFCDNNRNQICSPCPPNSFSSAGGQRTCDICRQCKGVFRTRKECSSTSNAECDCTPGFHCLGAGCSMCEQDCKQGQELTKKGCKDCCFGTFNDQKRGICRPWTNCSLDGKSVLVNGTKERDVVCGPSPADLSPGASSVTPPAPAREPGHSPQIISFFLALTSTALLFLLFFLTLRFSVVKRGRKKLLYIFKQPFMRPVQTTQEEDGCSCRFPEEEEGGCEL
# Columns and labels:
# [1] = biological target: human CD137 (recombinant antigen of the ELISA of Example 2 and the SPR of Example 3; construct not stated) (human) (UniProt Q07011); assay: ELISA
# [2] = biological target: human CD137 (recombinant antigen of the ELISA of Example 2 and the SPR of Example 3; construct not stated) (human) (UniProt Q07011); assay: antigen ELISA
binder,measurement,setting,value
BGA-9612 VHH-Fc (camelid anti-huCD137 VHH fused at the N terminal of human IgG1 Fc-null with a G4S linker) (VHH) VHH: QVQLVESGGGTVQPGDSLRLSCAASGRTFDNYAVGWFRQAPGKERQYVGTYWSGYAHYGDFENNRFTISRDNAKNTVYLQMDNLKPEDTAVYYCAISLKYPMATVTPDYQGQGTQVTVSS,binding,[1],binds
same,binding,[2],binds
